Results: paper PMC6876112
These are yes or no findings as the source states them, for the method shown. Binding seen in cells or lysates may run through a third protein. Some results given as binding are weak or reduced against the parent protein; the word gives no strength. Tags and fused reporters may be left off the sequences shown.

Protein sequences, listed by entry. Tags and fused reporters are not part of them.
UniProt P35222: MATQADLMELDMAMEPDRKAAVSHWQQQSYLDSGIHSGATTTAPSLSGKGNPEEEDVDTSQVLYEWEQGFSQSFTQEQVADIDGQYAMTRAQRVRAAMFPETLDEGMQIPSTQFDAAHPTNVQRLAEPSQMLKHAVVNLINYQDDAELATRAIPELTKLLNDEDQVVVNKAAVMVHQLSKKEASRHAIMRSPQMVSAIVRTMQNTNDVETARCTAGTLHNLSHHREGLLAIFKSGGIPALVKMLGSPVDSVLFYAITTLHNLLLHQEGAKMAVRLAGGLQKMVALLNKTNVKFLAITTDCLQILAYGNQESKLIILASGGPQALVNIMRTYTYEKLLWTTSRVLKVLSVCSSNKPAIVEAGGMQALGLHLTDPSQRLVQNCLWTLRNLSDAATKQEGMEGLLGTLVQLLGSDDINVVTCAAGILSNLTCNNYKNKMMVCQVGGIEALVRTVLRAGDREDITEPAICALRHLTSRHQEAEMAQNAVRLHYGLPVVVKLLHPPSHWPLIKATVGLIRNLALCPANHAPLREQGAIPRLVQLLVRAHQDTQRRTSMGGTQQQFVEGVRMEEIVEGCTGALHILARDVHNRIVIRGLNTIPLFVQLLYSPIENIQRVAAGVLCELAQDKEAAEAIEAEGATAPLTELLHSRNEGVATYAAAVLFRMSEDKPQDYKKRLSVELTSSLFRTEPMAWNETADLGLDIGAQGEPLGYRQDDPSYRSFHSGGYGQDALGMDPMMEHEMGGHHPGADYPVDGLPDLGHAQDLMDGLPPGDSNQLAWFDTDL

Molecular target: Myc-tagged beta-catenin (UniProt P35222)
Assay: co-IP; U2OS or Saos-2 cells transfected with Myc-beta-catenin, Flag-LHX9 or both, 48 h; lysis in 20 mM Tris pH 7.5, 150 mM NaCl, 1 mM EDTA, 1% Triton X-100; precipitated with anti-Myc tag antibody and Protein A/G agarose at 4 °C; blot probed with anti-Flag tag antibody

B1: Flag-tagged LHX9 (protein, UniProt Q9NQ69 1-397)
chain: MEIVGCRAEDNSCPFRPPAMLFHGISGGHIQGIMEEMERRSKTEARLAKGAQLNGRDAGMPPLSPEKPALCAGCGGKISDRYYLLAVDKQWHLRCLKCCECKLALESELTCFAKDGSIYCKEDYYRRFSVQRCARCHLGISASEMVMRARDSVYHLSCFTCSTCNKTLTTGDHFGMKDSLVYCRAHFETLLQGEYPPQLSYTELAAKSGGLALPYFNGTGTVQKGRPRKRKSPALGVDIVNYNSGCNENEADHLDRDQQPYPPSQKTKRMRTSFKHHQLRTMKSYFAINHNPDAKDLKQLAQKTGLTKRVLQVWFQNARAKFRRNLLRQENGGVDKADGTSLPAPPSADSGALTPPGTATTLTDLTNPTITVVTSVTSNMDSHESGSPSQTTLTNLF
  binding: binds
